{"source": "paper PMC10425210", "about": "(The Journal of Clinical Investigation, 2023)", "key": {"[1]": {"experiment": "Plasma pharmacokinetics after a single subcutaneous administration of LEN", "format": "in vivo, rhesus macaques", "method": "All animals were housed at Bioqual Inc. For the in vivo SHIV stock titration study, 8 untreated outbred Indian-origin male rhesus macaques aged 3–5 years were challenged intrarectally per round for a total of 5 challenge rounds using increasing virus doses ranging from 0.625 to 100 TCID50, with the 100 TCID50 round performed twice for increased resolution (Supplemental Table 2). Plasma viral load was measured to confirm the infection status. […] Injection sites were monitored daily by veterinary staff for 2 weeks and then weekly through the end of study. On week 7, 11 animals were challenged by the intrarectal route with 1 mL RPMI containing 100 TCID50 SHIV-SF162P3. Whole blood was collected and processed into plasma and PBMCs as necessary for the assessment of routine hematology and clinical chemistry, viral load analysis, serology, and the bioanalysis of drug levels. Animals were considered protected if they remained SHIV negative by a plasma PCR assay and seronegative by enzyme immunoassay through week 10 after challenge.\nRhesus plasma samples were stored frozen at –80°C and thawed, and a 50 μL aliquot of each was treated with 200 μL acetonitrile containing an internal standard. After precipitation of the protein component, a 100 μL aliquot of the supernatant was transferred to a clean 96-well plate and mixed with 200 μL water. A 10 μL aliquot of the above solution was then injected into a Q-Exactive high resolution mass spectrometer from Thermo Electron with electrospray ionization in positive mode."}, "[2]": {"tested_on": "SHIV-SF162P3", "format": "in vivo, rhesus macaques"}, "[3]": {"conditions": "animal BM55, 20 mg/kg, week 1 post challenge"}, "[4]": {"conditions": "animal BM55, 20 mg/kg, week 2 post challenge"}, "[5]": {"conditions": "animal BM55, 20 mg/kg, week 3 post challenge"}, "[6]": {"conditions": "animal BM55, 20 mg/kg, week 4 post challenge"}, "[7]": {"conditions": "animal BM55, 20 mg/kg, week 5 post challenge"}, "[8]": {"conditions": "animal BN33, 20 mg/kg, week 1 post challenge"}, "[9]": {"conditions": "animal BN33, 20 mg/kg, week 2 post challenge"}}, "note": "Where “and” joins values, the source holds several entries; their conditions need not be identical. Equal entries are not always repeated. Where two headings read alike, the source gives them in different places. The source gives many values for each of these; only a part stands here.", "data": [{"smiles": "CC(C)(C#Cc1ccc(-c2ccc(Cl)c3c(NS(C)(=O)=O)nn(CC(F)(F)F)c23)c([C@H](Cc2cc(F)cc(F)c2)NC(=O)Cn2nc(C(F)(F)F)c3c2C(F)(F)[C@@H]2C[C@H]32)n1)S(C)(=O)=O", "note": "[LEN, Lenacapavir]", "values": [{"measurement": "Plasma LEN", "setting": "[1]; [3]", "result": 32.00, "unit": "nM"}, {"measurement": "Plasma LEN", "setting": "[1]; [4]", "result": 36.71, "unit": "nM"}, {"measurement": "Plasma LEN", "setting": "[1]; [5]", "result": 38.02, "unit": "nM"}, {"measurement": "Plasma LEN", "setting": "[1]; [6]", "result": 20.83, "unit": "nM"}, {"measurement": "Plasma LEN", "setting": "[1]; [7]", "result": 13.56, "unit": "nM"}, {"measurement": "Plasma LEN", "setting": "[1]; [8]", "result": 17.80, "unit": "nM"}, {"measurement": "Plasma LEN", "setting": "[1]; [9]", "result": 16.99, "unit": "nM"}, {"measurement": "Plasma LEN", "setting": "[1]; animal BN33, 20 mg/kg, week 3 post challenge", "result": 14.34, "unit": "nM"}, {"measurement": "Plasma LEN", "setting": "[1]; animal BN33, 20 mg/kg, week 4 post challenge", "result": 16.20, "unit": "nM"}, {"measurement": "Plasma LEN", "setting": "[1]; animal BN33, 20 mg/kg, week 5 post challenge", "result": 6.68, "unit": "nM"}, {"measurement": "Plasma LEN", "setting": "[1]; animal CP67, 75 mg/kg, week 12 post challenge", "result": 16.89, "unit": "nM"}, {"measurement": "Plasma LEN", "setting": "[1]; animal CP67, 75 mg/kg, week 13 post challenge", "result": 11.36, "unit": "nM"}, {"measurement": "Plasma LEN", "setting": "[1]; animal CP67, 75 mg/kg, week 14 post challenge", "result": 7.72, "unit": "nM"}, {"measurement": "Plasma LEN", "setting": "[1]; animal CP67, 75 mg/kg, week 15 post challenge", "result": 5.88, "unit": "nM"}, {"measurement": "Plasma LEN", "setting": "[1]; animal CP67, 75 mg/kg, week 16 post challenge", "result": 6.11, "unit": "nM"}, {"measurement": "Plasma LEN", "setting": "[1]; animal CP67, 75 mg/kg, week 17 post challenge", "result": 4.23, "unit": "nM"}, {"measurement": "Plasma LEN", "setting": "[1]; animal CP67, 75 mg/kg, week 18 post challenge", "result": 3.84, "unit": "nM"}, {"measurement": "Plasma LEN", "setting": "[1]; animal V229, 20 mg/kg, week 1 post challenge", "result": 41.40, "unit": "nM"}, {"measurement": "Plasma LEN", "setting": "[1]; animal V229, 20 mg/kg, week 2 post challenge", "result": 43.50, "unit": "nM"}, {"measurement": "Plasma LEN", "setting": "[1]; animal V229, 20 mg/kg, week 3 post challenge", "result": 43.98, "unit": "nM"}, {"measurement": "Plasma LEN", "setting": "[1]; animal V229, 20 mg/kg, week 4 post challenge", "result": 15.25, "unit": "nM"}, {"measurement": "Plasma LEN", "setting": "[1]; animal V229, 20 mg/kg, week 5 post challenge", "result": 12.07, "unit": "nM"}, {"measurement": "Plasma LEN", "setting": "[1]; animal V417, 75 mg/kg, week 11 post challenge", "result": 22.75, "unit": "nM"}, {"measurement": "Plasma LEN", "setting": "[1]; animal V417, 75 mg/kg, week 12 post challenge", "result": 18.52, "unit": "nM"}, {"measurement": "Plasma LEN", "setting": "[1]; animal V417, 75 mg/kg, week 13 post challenge", "result": 19.75, "unit": "nM"}, {"measurement": "Plasma LEN", "setting": "[1]; animal V417, 75 mg/kg, week 14 post challenge", "result": 16.93, "unit": "nM"}, {"measurement": "Plasma LEN", "setting": "[1]; animal V417, 75 mg/kg, week 15 post challenge", "result": 10.77, "unit": "nM"}, {"measurement": "Plasma LEN", "setting": "[1]; animal V417, 75 mg/kg, week 16 post challenge", "result": 14.85, "unit": "nM"}, {"measurement": "Plasma LEN", "setting": "[1]; animal V417, 75 mg/kg, week 17 post challenge", "result": 15.00, "unit": "nM"}, {"measurement": "Plasma LEN", "setting": "[1]; animal V417, 75 mg/kg, week 18 post challenge", "result": 13.17, "unit": "nM"}, {"measurement": "Plasma LEN", "setting": "[1]; animal V426, 75 mg/kg, week 12 post challenge", "result": 28.65, "unit": "nM"}, {"measurement": "Plasma LEN", "setting": "[1]; animal V426, 75 mg/kg, week 13 post challenge", "result": 34.52, "unit": "nM"}, {"measurement": "Plasma LEN", "setting": "[1]; animal V426, 75 mg/kg, week 14 post challenge", "result": 23.63, "unit": "nM"}, {"measurement": "Plasma LEN", "setting": "[1]; animal V426, 75 mg/kg, week 15 post challenge", "result": 19.83, "unit": "nM"}, {"measurement": "Plasma LEN", "setting": "[1]; animal V426, 75 mg/kg, week 16 post challenge", "result": 19.46, "unit": "nM"}, {"measurement": "Plasma LEN", "setting": "[1]; animal V426, 75 mg/kg, week 17 post challenge", "result": 26.86, "unit": "nM"}, {"measurement": "Plasma LEN", "setting": "[1]; animal V426, 75 mg/kg, week 18 post challenge", "result": 28.44, "unit": "nM"}, {"measurement": "Plasma LEN", "setting": "[1]; animal V435, 75 mg/kg, week 11 post challenge", "result": 1.77, "unit": "nM"}, {"measurement": "Plasma LEN", "setting": "[1]; animal V435, 75 mg/kg, week 12 post challenge", "result": 1.00, "unit": "nM"}, {"measurement": "Plasma LEN", "setting": "[1]; animal V435, 75 mg/kg, week 13 post challenge", "result": 1.00, "unit": "nM"}, {"measurement": "Plasma LEN", "setting": "[1]; animal V435, 75 mg/kg, week 14 post challenge", "result": 1.00, "unit": "nM"}, {"measurement": "Plasma LEN", "setting": "[1]; animal V435, 75 mg/kg, week 15 post challenge", "result": 1.00, "unit": "nM"}, {"measurement": "Plasma LEN", "setting": "[1]; animal V435, 75 mg/kg, week 16 post challenge", "result": 1.00, "unit": "nM"}, {"measurement": "Plasma LEN", "setting": "[1]; animal V435, 75 mg/kg, week 17 post challenge", "result": 1.00, "unit": "nM"}, {"measurement": "Plasma LEN", "setting": "[1]; animal V435, 75 mg/kg, week 18 post challenge", "result": 1.00, "unit": "nM"}, {"measurement": "Plasma LEN", "setting": "[1]; animal V435, 75 mg/kg, week 19 post challenge", "result": 1.00, "unit": "nM"}, {"measurement": "Plasma LEN", "setting": "[1]; animal V435, 75 mg/kg, week 20 post challenge", "result": 1.00, "unit": "nM"}, {"measurement": "Plasma LEN at the time of challenge", "setting": "[1]; individual Infected animals", "result": "37.30 nM and 38.60 nM and 28.17 nM"}, {"measurement": "Plasma LEN at the time of challenge", "setting": "[1]; individual Non-infected animals", "result": "158.01 nM and 177.50 nM and 18.60 nM and 50.08 nM and 100.49 nM and 117.17 nM and 143.42 nM and 153.65 nM"}, {"measurement": "Plasma SHIV RNA", "setting": "[2]; animal BM55, 20 mg/kg, week 0 post challenge", "result": 62, "unit": "copies per mL"}, {"measurement": "Plasma SHIV RNA", "setting": "[2]; [3]", "result": 62, "unit": "copies per mL"}, {"measurement": "Plasma SHIV RNA", "setting": "[2]; [4]", "result": 74768, "unit": "copies per mL"}, {"measurement": "Plasma SHIV RNA", "setting": "[2]; [5]", "result": 1140343, "unit": "copies per mL"}, {"measurement": "Plasma SHIV RNA", "setting": "[2]; [6]", "result": 77741, "unit": "copies per mL"}, {"measurement": "Plasma SHIV RNA", "setting": "[2]; [7]", "result": 72579, "unit": "copies per mL"}, {"measurement": "Plasma SHIV RNA", "setting": "[2]; animal BN33, 20 mg/kg, week 0 post challenge", "result": 62, "unit": "copies per mL"}, {"measurement": "Plasma SHIV RNA", "setting": "[2]; [8]", "result": 62, "unit": "copies per mL"}, {"measurement": "Plasma SHIV RNA", "setting": "[2]; [9]", "result": 62, "unit": "copies per mL"}]}]}
